# Source: the supplement of paper PMC11438910
# The list shows a part of the results. Only a few entries rise above the background.
# Legend:
# Test in all cases: fluorescence intensity of antibody binding to polysaccharide-coupled beads; higher = stronger binding
# [1] = target: pneumococcal polysaccharide C-Poly-1
# [2] = target: pneumococcal polysaccharide C-Poly-2
# [3] = target: pneumococcal polysaccharide Pn1
# [4] = target: pneumococcal polysaccharide Pn10A
# [5] = target: pneumococcal polysaccharide Pn10B
# [6] = target: pneumococcal polysaccharide Pn10C
# [7] = target: pneumococcal polysaccharide Pn10F
# [8] = target: pneumococcal polysaccharide Pn11A
# [9] = target: pneumococcal polysaccharide Pn6A
# [10] = target: pneumococcal polysaccharide Pn6B
# [11] = target: pneumococcal polysaccharide Pn6C
# [12] = target: pneumococcal polysaccharide Pn6D
# [13] = target: pneumococcal polysaccharide Pn7A
# [14] = target: pneumococcal polysaccharide Pn7B
# [15] = target: pneumococcal polysaccharide Pn7C
# [16] = target: pneumococcal polysaccharide Pn7F
# [17] = target: pneumococcal polysaccharide Pn8
# [18] = target: pneumococcal polysaccharide Pn9A
# [19] = target: pneumococcal polysaccharide Pn9L
# [20] = target: pneumococcal polysaccharide Pn9N
# [21] = target: pneumococcal polysaccharide Pn9V
# [22] = antibody concentration 0.1 ng/mL
# [23] = antibody concentration 0.534724 ng/mL
# [24] = antibody concentration 2.8593 ng/mL
# [25] = antibody concentration 15.2894 ng/mL
# [26] = antibody concentration 81.7561 ng/mL
# [27] = antibody concentration 437.17 ng/mL
# [28] = antibody concentration 2337.65 ng/mL
# [29] = antibody concentration 12500 ng/mL
binder,measurement,setting,value
4-173.4 (protein) chain 1: QLQLQESGPGLVKPSETLSLTCAVSGGSISSHYWSWIRQPPGKGLEWIGRFSAGGGSTDYNPSLKSRVTISTDTSKNQFTLNLNSVTAADTAVYYCTRGSYTSDYWGQGVLVTVSS chain 2: QAALTQSPSVSGSPGQSVTISCTGTSSDIGGYIRVSWYQQHPGKAPKLMIYEVSKRPSGVSDRFSGSKSGNTASLTISGLQAEDEADYYCFSYARGDTVLLGGGTRLTVL,fluorescence intensity,[1]; [22],27.8 MFI
same,fluorescence intensity,[1]; [23],26 MFI
same,fluorescence intensity,[1]; [24],25.8 MFI
same,fluorescence intensity,[1]; [25],25 MFI
same,fluorescence intensity,[1]; [26],26.5 MFI
same,fluorescence intensity,[1]; [27],30 MFI
same,fluorescence intensity,[1]; [28],36.5 MFI
same,fluorescence intensity,[1]; [29],118 MFI
same,fluorescence intensity,[2]; [22],22 MFI
same,fluorescence intensity,[2]; [23],20.5 MFI
same,fluorescence intensity,[2]; [24],21 MFI
same,fluorescence intensity,[2]; [25],21 MFI
same,fluorescence intensity,[2]; [26],23.2 MFI
same,fluorescence intensity,[2]; [27],24 MFI
same,fluorescence intensity,[2]; [28],31 MFI
same,fluorescence intensity,[2]; [29],108 MFI
same,fluorescence intensity,[3]; [22],15 MFI
same,fluorescence intensity,[3]; [23],13 MFI
same,fluorescence intensity,[3]; [24],14 MFI
same,fluorescence intensity,[3]; [25],13.2 MFI
same,fluorescence intensity,[3]; [26],13.5 MFI
same,fluorescence intensity,[3]; [27],16 MFI
same,fluorescence intensity,[3]; [28],18 MFI
same,fluorescence intensity,[3]; [29],31.8 MFI
same,fluorescence intensity,[4]; [22],25 MFI
same,fluorescence intensity,[4]; [23],27 MFI
same,fluorescence intensity,[4]; [24],25.8 MFI
same,fluorescence intensity,[4]; [25],26.2 MFI
same,fluorescence intensity,[4]; [26],26.5 MFI
same,fluorescence intensity,[4]; [27],27 MFI
same,fluorescence intensity,[4]; [28],27.5 MFI
same,fluorescence intensity,[4]; [29],35 MFI
same,fluorescence intensity,[5]; [22],21.8 MFI
same,fluorescence intensity,[5]; [23],24 MFI
same,fluorescence intensity,[5]; [24],22.5 MFI
same,fluorescence intensity,[5]; [25],22.8 MFI
same,fluorescence intensity,[5]; [26],24.5 MFI
same,fluorescence intensity,[5]; [27],22 MFI
same,fluorescence intensity,[5]; [28],22.8 MFI
same,fluorescence intensity,[5]; [29],30.2 MFI
same,fluorescence intensity,[6]; [22],15 MFI
same,fluorescence intensity,[6]; [23],17 MFI
same,fluorescence intensity,[6]; [24],17 MFI
same,fluorescence intensity,[6]; [25],16.5 MFI
same,fluorescence intensity,[6]; [26],15 MFI
same,fluorescence intensity,[6]; [27],17.5 MFI
same,fluorescence intensity,[6]; [28],18.5 MFI
same,fluorescence intensity,[6]; [29],19.5 MFI
same,fluorescence intensity,[7]; [22],19.2 MFI
same,fluorescence intensity,[7]; [23],18.5 MFI
same,fluorescence intensity,[7]; [24],19.5 MFI
same,fluorescence intensity,[7]; [25],17.8 MFI
same,fluorescence intensity,[7]; [26],22 MFI
same,fluorescence intensity,[7]; [27],19.5 MFI
same,fluorescence intensity,[7]; [28],19.5 MFI
same,fluorescence intensity,[7]; [29],21.8 MFI
same,fluorescence intensity,[8]; [22],29 MFI
same,fluorescence intensity,[8]; [23],29 MFI
same,fluorescence intensity,[8]; [24],27.2 MFI
same,fluorescence intensity,[8]; [25],29.8 MFI
4-127.4 (protein) chain 1: QVQLQESGPGLVKPSETLSLTCGVSGYSISSGHGWSWIRQPPGKGLEWIGYVGGSSGNTNYNPSLKSRVTISKDTSKNQISLKLSSVTAADTAVYYCARRGISGTFGLVDYWGQGVLVTVSS chain 2: QSVLTQPPSVSGAPGQRVTISCTGSSSNIGGYYVQWYQQLPGSAPKLLIYDNDQRPSGVSDRISGSRSGTSASLTITGLQSEDEADYYCQSFDSFLRGVLFGGGTRLTVL,fluorescence intensity,[9]; [26],22 MFI
same,fluorescence intensity,[9]; [27],25 MFI
same,fluorescence intensity,[9]; [28],27.5 MFI
same,fluorescence intensity,[9]; [29],35 MFI
same,fluorescence intensity,[10]; [22],19.5 MFI
same,fluorescence intensity,[10]; [23],18.2 MFI
same,fluorescence intensity,[10]; [24],21.5 MFI
same,fluorescence intensity,[10]; [25],19 MFI
same,fluorescence intensity,[10]; [26],19.5 MFI
same,fluorescence intensity,[10]; [27],21 MFI
same,fluorescence intensity,[10]; [28],24.2 MFI
same,fluorescence intensity,[10]; [29],31.5 MFI
same,fluorescence intensity,[11]; [22],20.2 MFI
same,fluorescence intensity,[11]; [23],19.5 MFI
same,fluorescence intensity,[11]; [24],19.5 MFI
same,fluorescence intensity,[11]; [25],37 MFI
same,fluorescence intensity,[11]; [26],57.8 MFI
same,fluorescence intensity,[11]; [27],64 MFI
same,fluorescence intensity,[11]; [28],72.8 MFI
same,fluorescence intensity,[11]; [29],80.5 MFI
same,fluorescence intensity,[12]; [22],16 MFI
same,fluorescence intensity,[12]; [23],17 MFI
same,fluorescence intensity,[12]; [24],16 MFI
same,fluorescence intensity,[12]; [25],16.5 MFI
same,fluorescence intensity,[12]; [26],17 MFI
same,fluorescence intensity,[12]; [27],16.5 MFI
same,fluorescence intensity,[12]; [28],20.5 MFI
same,fluorescence intensity,[12]; [29],23.5 MFI
same,fluorescence intensity,[13]; [22],22 MFI
same,fluorescence intensity,[13]; [23],20 MFI
same,fluorescence intensity,[13]; [24],19.5 MFI
same,fluorescence intensity,[13]; [25],20.5 MFI
same,fluorescence intensity,[13]; [26],18.5 MFI
same,fluorescence intensity,[13]; [27],21.5 MFI
same,fluorescence intensity,[13]; [28],28 MFI
same,fluorescence intensity,[13]; [29],79 MFI
same,fluorescence intensity,[14]; [22],16 MFI
same,fluorescence intensity,[14]; [23],16.5 MFI
same,fluorescence intensity,[14]; [24],15.8 MFI
same,fluorescence intensity,[14]; [25],17.2 MFI
same,fluorescence intensity,[14]; [26],16.8 MFI
same,fluorescence intensity,[14]; [27],16.5 MFI
same,fluorescence intensity,[14]; [28],19 MFI
same,fluorescence intensity,[14]; [29],28.8 MFI
same,fluorescence intensity,[15]; [22],16 MFI
same,fluorescence intensity,[15]; [23],16 MFI
same,fluorescence intensity,[15]; [24],14.2 MFI
same,fluorescence intensity,[15]; [25],15.8 MFI
same,fluorescence intensity,[15]; [26],16 MFI
same,fluorescence intensity,[15]; [27],16.2 MFI
same,fluorescence intensity,[15]; [28],17 MFI
same,fluorescence intensity,[15]; [29],23 MFI
same,fluorescence intensity,[16]; [22],14.2 MFI
same,fluorescence intensity,[16]; [23],13 MFI
same,fluorescence intensity,[16]; [24],16 MFI
same,fluorescence intensity,[16]; [25],15 MFI
same,fluorescence intensity,[16]; [26],15.8 MFI
same,fluorescence intensity,[16]; [27],16 MFI
same,fluorescence intensity,[16]; [28],24 MFI
same,fluorescence intensity,[16]; [29],62.5 MFI
same,fluorescence intensity,[17]; [22],21 MFI
same,fluorescence intensity,[17]; [23],21.5 MFI
same,fluorescence intensity,[17]; [24],22 MFI
same,fluorescence intensity,[17]; [25],22 MFI
same,fluorescence intensity,[17]; [26],21.5 MFI
same,fluorescence intensity,[17]; [27],23.8 MFI
same,fluorescence intensity,[17]; [28],27 MFI
same,fluorescence intensity,[17]; [29],41 MFI
same,fluorescence intensity,[18]; [22],19.5 MFI
same,fluorescence intensity,[18]; [23],19 MFI
same,fluorescence intensity,[18]; [24],18.5 MFI
same,fluorescence intensity,[18]; [25],18 MFI
same,fluorescence intensity,[18]; [26],18 MFI
same,fluorescence intensity,[18]; [27],19 MFI
same,fluorescence intensity,[18]; [28],22 MFI
same,fluorescence intensity,[18]; [29],33.2 MFI
same,fluorescence intensity,[19]; [22],17.2 MFI
same,fluorescence intensity,[19]; [23],18.8 MFI
same,fluorescence intensity,[19]; [24],17.5 MFI
same,fluorescence intensity,[19]; [25],18 MFI
same,fluorescence intensity,[19]; [26],18.5 MFI
same,fluorescence intensity,[19]; [27],18 MFI
same,fluorescence intensity,[19]; [28],18.2 MFI
same,fluorescence intensity,[19]; [29],25.5 MFI
same,fluorescence intensity,[20]; [22],16 MFI
same,fluorescence intensity,[20]; [23],15.5 MFI
same,fluorescence intensity,[20]; [24],15.8 MFI
same,fluorescence intensity,[20]; [25],16 MFI
same,fluorescence intensity,[20]; [26],15.5 MFI
same,fluorescence intensity,[20]; [27],16 MFI
same,fluorescence intensity,[20]; [28],17.5 MFI
same,fluorescence intensity,[20]; [29],24.5 MFI
same,fluorescence intensity,[21]; [22],15 MFI
same,fluorescence intensity,[21]; [23],15 MFI
same,fluorescence intensity,[21]; [24],15.5 MFI
same,fluorescence intensity,[21]; [25],15 MFI
same,fluorescence intensity,[21]; [26],14.5 MFI
same,fluorescence intensity,[21]; [27],15 MFI
same,fluorescence intensity,[21]; [28],17.5 MFI
same,fluorescence intensity,[21]; [29],21.5 MFI

# Looked up one by one from the list above, 7 records:
binder,measurement,setting,value
4-127.4 (protein) chain 1: QVQLQESGPGLVKPSETLSLTCGVSGYSISSGHGWSWIRQPPGKGLEWIGYVGGSSGNTNYNPSLKSRVTISKDTSKNQISLKLSSVTAADTAVYYCARRGISGTFGLVDYWGQGVLVTVSS chain 2: QSVLTQPPSVSGAPGQRVTISCTGSSSNIGGYYVQWYQQLPGSAPKLLIYDNDQRPSGVSDRISGSRSGTSASLTITGLQSEDEADYYCQSFDSFLRGVLFGGGTRLTVL,fluorescence intensity,[10]; [25],19 MFI
4-173.4 (protein) chain 1: QLQLQESGPGLVKPSETLSLTCAVSGGSISSHYWSWIRQPPGKGLEWIGRFSAGGGSTDYNPSLKSRVTISTDTSKNQFTLNLNSVTAADTAVYYCTRGSYTSDYWGQGVLVTVSS chain 2: QAALTQSPSVSGSPGQSVTISCTGTSSDIGGYIRVSWYQQHPGKAPKLMIYEVSKRPSGVSDRFSGSKSGNTASLTISGLQAEDEADYYCFSYARGDTVLLGGGTRLTVL,fluorescence intensity,[1]; [22],27.8 MFI
4-127.4 (protein) chain 1: QVQLQESGPGLVKPSETLSLTCGVSGYSISSGHGWSWIRQPPGKGLEWIGYVGGSSGNTNYNPSLKSRVTISKDTSKNQISLKLSSVTAADTAVYYCARRGISGTFGLVDYWGQGVLVTVSS chain 2: QSVLTQPPSVSGAPGQRVTISCTGSSSNIGGYYVQWYQQLPGSAPKLLIYDNDQRPSGVSDRISGSRSGTSASLTITGLQSEDEADYYCQSFDSFLRGVLFGGGTRLTVL,fluorescence intensity,[19]; [22],17.2 MFI
same,fluorescence intensity,[19]; [29],25.5 MFI
same,fluorescence intensity,[18]; [26],18 MFI
4-173.4 (protein) chain 1: QLQLQESGPGLVKPSETLSLTCAVSGGSISSHYWSWIRQPPGKGLEWIGRFSAGGGSTDYNPSLKSRVTISTDTSKNQFTLNLNSVTAADTAVYYCTRGSYTSDYWGQGVLVTVSS chain 2: QAALTQSPSVSGSPGQSVTISCTGTSSDIGGYIRVSWYQQHPGKAPKLMIYEVSKRPSGVSDRFSGSKSGNTASLTISGLQAEDEADYYCFSYARGDTVLLGGGTRLTVL,fluorescence intensity,[3]; [28],18 MFI
4-127.4 (protein) chain 1: QVQLQESGPGLVKPSETLSLTCGVSGYSISSGHGWSWIRQPPGKGLEWIGYVGGSSGNTNYNPSLKSRVTISKDTSKNQISLKLSSVTAADTAVYYCARRGISGTFGLVDYWGQGVLVTVSS chain 2: QSVLTQPPSVSGAPGQRVTISCTGSSSNIGGYYVQWYQQLPGSAPKLLIYDNDQRPSGVSDRISGSRSGTSASLTITGLQSEDEADYYCQSFDSFLRGVLFGGGTRLTVL,fluorescence intensity,[11]; [22],20.2 MFI
